## Screening data, single-dose tests

By UniProt entry, the sequences of proteins in these tests, tags left out.
UniProt P9WFT3, whole entry: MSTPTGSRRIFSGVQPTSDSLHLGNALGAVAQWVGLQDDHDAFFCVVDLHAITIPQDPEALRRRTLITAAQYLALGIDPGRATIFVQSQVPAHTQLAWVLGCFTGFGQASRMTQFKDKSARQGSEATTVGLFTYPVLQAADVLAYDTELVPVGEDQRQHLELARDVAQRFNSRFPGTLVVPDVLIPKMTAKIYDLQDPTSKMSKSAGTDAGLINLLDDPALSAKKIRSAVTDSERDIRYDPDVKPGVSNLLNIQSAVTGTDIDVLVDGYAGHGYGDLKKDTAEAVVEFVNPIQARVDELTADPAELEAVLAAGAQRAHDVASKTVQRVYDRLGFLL
UniProt P9WPC5, whole entry: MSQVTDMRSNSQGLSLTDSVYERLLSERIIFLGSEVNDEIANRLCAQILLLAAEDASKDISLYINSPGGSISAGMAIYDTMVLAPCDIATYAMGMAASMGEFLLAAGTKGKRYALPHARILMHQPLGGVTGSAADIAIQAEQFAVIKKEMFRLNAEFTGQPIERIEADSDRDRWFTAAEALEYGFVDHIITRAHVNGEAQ
UniProt P9WPC3, whole entry partner: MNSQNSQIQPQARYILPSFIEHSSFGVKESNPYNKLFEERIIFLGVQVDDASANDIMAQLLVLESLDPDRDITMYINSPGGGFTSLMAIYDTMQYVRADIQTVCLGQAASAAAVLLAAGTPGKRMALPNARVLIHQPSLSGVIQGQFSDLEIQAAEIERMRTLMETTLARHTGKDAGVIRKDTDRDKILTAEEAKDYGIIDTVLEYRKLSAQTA
UniProt P9WNZ1, whole entry: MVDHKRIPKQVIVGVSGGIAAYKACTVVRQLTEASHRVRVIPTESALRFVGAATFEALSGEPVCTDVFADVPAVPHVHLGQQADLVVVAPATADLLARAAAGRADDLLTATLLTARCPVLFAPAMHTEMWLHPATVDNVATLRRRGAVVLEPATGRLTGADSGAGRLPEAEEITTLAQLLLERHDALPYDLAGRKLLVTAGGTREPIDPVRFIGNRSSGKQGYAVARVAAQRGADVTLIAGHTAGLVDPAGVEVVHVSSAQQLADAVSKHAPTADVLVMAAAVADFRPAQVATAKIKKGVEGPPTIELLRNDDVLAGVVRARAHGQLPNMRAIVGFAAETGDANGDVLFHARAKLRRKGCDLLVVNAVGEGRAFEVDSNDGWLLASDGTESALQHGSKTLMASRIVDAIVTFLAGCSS
UniProt I6X8D2, whole entry: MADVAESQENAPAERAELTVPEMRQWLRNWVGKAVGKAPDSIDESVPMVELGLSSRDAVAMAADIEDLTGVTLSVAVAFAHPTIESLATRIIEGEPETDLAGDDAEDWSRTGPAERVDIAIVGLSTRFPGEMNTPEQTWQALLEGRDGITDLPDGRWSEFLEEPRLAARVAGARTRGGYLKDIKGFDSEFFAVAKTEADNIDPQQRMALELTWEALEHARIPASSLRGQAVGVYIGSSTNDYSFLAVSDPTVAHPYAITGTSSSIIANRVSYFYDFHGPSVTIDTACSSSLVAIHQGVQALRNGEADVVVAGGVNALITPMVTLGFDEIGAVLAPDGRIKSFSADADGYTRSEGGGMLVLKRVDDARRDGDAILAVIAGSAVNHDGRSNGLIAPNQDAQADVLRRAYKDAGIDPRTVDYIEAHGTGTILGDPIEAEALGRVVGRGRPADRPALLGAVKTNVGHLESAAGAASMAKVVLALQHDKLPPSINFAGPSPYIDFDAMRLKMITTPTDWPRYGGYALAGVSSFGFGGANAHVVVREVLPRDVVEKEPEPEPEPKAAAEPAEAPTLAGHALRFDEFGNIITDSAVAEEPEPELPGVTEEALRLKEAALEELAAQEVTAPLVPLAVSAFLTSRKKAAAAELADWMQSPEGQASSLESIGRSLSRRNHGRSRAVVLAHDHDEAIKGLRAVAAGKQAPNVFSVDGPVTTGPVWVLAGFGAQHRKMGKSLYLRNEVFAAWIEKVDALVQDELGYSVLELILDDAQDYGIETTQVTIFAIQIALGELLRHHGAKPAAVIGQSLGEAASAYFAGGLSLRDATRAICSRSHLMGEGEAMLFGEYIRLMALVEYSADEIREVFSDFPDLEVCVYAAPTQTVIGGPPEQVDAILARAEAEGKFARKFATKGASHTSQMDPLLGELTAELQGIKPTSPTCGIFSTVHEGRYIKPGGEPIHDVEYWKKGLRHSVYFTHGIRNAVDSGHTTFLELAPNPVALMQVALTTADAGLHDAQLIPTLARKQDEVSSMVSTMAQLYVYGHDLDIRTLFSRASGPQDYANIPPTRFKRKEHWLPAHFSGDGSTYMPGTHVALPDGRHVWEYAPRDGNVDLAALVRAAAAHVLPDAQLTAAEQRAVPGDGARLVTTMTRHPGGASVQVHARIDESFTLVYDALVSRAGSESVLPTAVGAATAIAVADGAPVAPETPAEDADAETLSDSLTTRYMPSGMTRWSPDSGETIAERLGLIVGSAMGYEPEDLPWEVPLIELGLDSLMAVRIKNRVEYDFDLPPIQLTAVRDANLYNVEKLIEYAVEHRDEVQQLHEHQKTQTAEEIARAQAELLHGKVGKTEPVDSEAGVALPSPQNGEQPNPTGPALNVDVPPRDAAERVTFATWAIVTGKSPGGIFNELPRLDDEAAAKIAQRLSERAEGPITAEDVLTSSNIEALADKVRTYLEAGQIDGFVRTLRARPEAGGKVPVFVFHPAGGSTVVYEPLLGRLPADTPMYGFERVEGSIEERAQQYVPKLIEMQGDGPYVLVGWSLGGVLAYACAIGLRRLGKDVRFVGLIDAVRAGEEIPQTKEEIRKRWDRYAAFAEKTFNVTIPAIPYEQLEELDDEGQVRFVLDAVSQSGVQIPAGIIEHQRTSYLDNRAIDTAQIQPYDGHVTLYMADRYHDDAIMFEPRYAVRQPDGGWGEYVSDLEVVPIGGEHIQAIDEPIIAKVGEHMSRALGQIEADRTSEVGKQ

Source: ChEMBL document CHEMBL3988442, “University of Dundee, Small-Polar-MMV Screening Library” (2021).

A: 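Enzyme assay of tryptophanyl-tRNA synthetase; the read-out is not stated. Target: Tryptophan-tRNA ligase, Mycobacterium tuberculosis (UniProt P9WFT3). Tested at 10 µM. Direction is not recorded; retested compounds ran higher, which suggests that high means inhibition. About 65,000 compounds were tested under these conditions; 0.098% (about 64) showed 50% or more at least once.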
B: 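Assay of Toxoplasma gondii numbers, read through their beta-galactosidase reporter with a colour substrate. Compounds at 10 µM. Higher reads as fewer parasites (inferred from which compounds were picked for retests). Of about 67,000 compounds tested this way, about 260 (0.38%) reached 50% or more in at least one test.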
C: 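ClpP1P2, Mycobacterium tuberculosis (UniProt P9WPC5 and UniProt P9WPC3). Protease assay of ClpP1P2, read by the AMC dye that it sets free. Concentration: 50 µM. Higher reads as stronger inhibition, judged from the few compounds that gave an IC50. Most other retested compounds had strongly negative values. About 69,000 compounds were tested under these conditions; 0.015% (about 10) showed 50% or more at least once.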
D: 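Coenzyme A biosynthesis protein CoaBC, Mycobacterium tuberculosis (UniProt P9WNZ1). Enzyme assay of CoaBC with a phosphate dye (Biomol Green) read at 650 nm. Compounds at 30 µM. Higher reads as stronger inhibition, judged from the few compounds that gave an IC50. Most strong results did not repeat in a second test. Size under these conditions: about 67,000 compounds, about 40 of them at 50% or above in at least one test.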
E: 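Polyketide synthase Pks13, Mycobacterium tuberculosis (UniProt I6X8D2). Enzyme assay of the thioesterase domain of polyketide synthase 13; the read-out is not stated. Compounds at 30 µM. Higher reads as stronger inhibition (inferred from which compounds were picked for retests). Size under these conditions: about 67,000 compounds, about 300 of them at 50% or above in at least one test.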

Values are the deposited “Percent Effect”, in %. The controls that fix the scale are not given in the record; negative values are as filed. This is an unselected part of the compounds tested. A dash means the value is not listed here; it may have been measured.

| Compound | A | B | C | D | E |
|---|---|---|---|---|---|
| `CC(=O)NCCN1CCC(c2cccs2)CC1` | -0.3564% | 2.189% | -12.43% | -3.625% | -8.116% |
| `[H][C@]12CC[C@]([H])(CN(c3ncccn3)C1)N(C(=O)CSCCC)C2` | - | 3.696% | - | - | - |
| `COCc1nc2cc(NCc3nc(C)cs3)ccc2o1` | -19.44% | 2.09% | -1.391% | 15.87% | -9.819% |
| `NCC1CCCCN1Cc1cc(O)c2cccc(F)c2n1` (stereo not drawn) | 2.614% | 4.559% | 4.166% | 12.53% | 0.7924% |
| `c1cncc(CN2CCC3(CC2)CC(c2cccnc2)CO3)c1` (stereo not drawn) | -6.806% | - | -11.4% | 0% | -15.13% |
| `COc1ccc(OC)c(C(O)CNC(=O)Nc2cccnc2OC)c1` (stereo not drawn) | -1.032% | -8.141% | -17.14% | -1.05% | -0.3543% |
| `CN(C(=O)NCC1(CN2CCOCC2)CCCCC1)C1CC1` | -1.774% | 7.325% | -7.683% | -0.2336% | 2.805% |
| `Cc1cc(Cc2ccccc2)cc(C2CCCNC2)n1` (stereo not drawn) | -3.312% | 11.15% | -30.04% | 7.282% | 6.596% |
| `O=S(=O)(Cc1ccc(F)c(Cl)c1)NC(CO)c1ccco1` (stereo not drawn) | 2.386% | -3.583% | -0.315% | 4.912% | -7.043% |
| `CC(C)(C)OC(=O)N1CCCN(c2nnc(C3CC3)s2)CC1` | 3.592% | -0.1129% | -2.862% | 3.19% | -0.264% |
| `Cc1nnc(CN2CCN(CC(O)c3ccccc3)CC2)o1` (stereo not drawn) | 1.428% | -14.3% | -19.15% | -8.409% | - |
| `CCOC(=O)c1sc2ccsc2c1CNC(=O)C(C)(C)C#N` | -1.458% | 3.339% | 3.953% | 9.106% | -13.08% |
| `OC(CN1CCC(c2ccn[nH]2)CC1)c1cccc(F)c1` (stereo not drawn) | -7.16% | - | -6.185% | 4.37% | -34.63% |
| `CN(C)C[C@@H]1CN(C(=O)c2cc(F)ccc2F)C[C@@H]1CO` | 2.407% | -11.97% | -8.693% | 6.813% | -27.8% |
| `Cn1cc(C[C@H]2[C@H](O)CCN2CC2CC2)cn1` | 3.4% | - | 10.01% | 4.627% | -28.74% |
| `CCC(C(=O)NCc1noc(Cc2cccs2)n1)n1cccn1` (stereo not drawn) | 3.184% | -6.702% | -36.3% | 5.342% | -18.39% |
| `CC(C)OCc1ccc(CNc2cncc(-n3cccn3)n2)cc1` | -2.756% | 12.6% | -429.1% | 4.779% | 16.5% |
| `CS(=O)(=O)NCCNC(=O)c1ccc(OCc2ccccc2)nc1` | -6.226% | 0.268% | -9.503% | 7.937% | 6.128% |
| `CS(=O)(=O)NCC1OCCc2cn(CC3CC3)nc21` (stereo not drawn) | 13.35% | 5.459% | 8.19% | 7.943% | 4.012% |
| `NC(=O)c1cccc(CCNCc2cnc(-c3cccs3)s2)c1` | -4.479% | -10.2% | -17.15% | 9.274% | 1.78% |
| `Cn1nc(Cn2cccn2)c2c1CN(C1CCOC1)C2` (stereo not drawn) | -9.919% | - | 11.28% | 2.24% | -11.12% |
| `CC(c1nc(C(C)(C)C)no1)N1CCN(C(=O)CN2CCOCC2)CC1` (stereo not drawn) | 1.761% | -1.73% | -0.6809% | 1.083% | 1.937% |
| `Cn1nc2c(cc1=O)CN(Cc1nnc(-c3ccco3)o1)CC2` | 7.944% | 2.03% | -1.383% | -2.332% | -4.999% |
| `CO[C@H]1C[C@@H](O)C12CCN(CCOc1ccc(Cl)cc1)CC2` | 6.479% | 1.421% | 1.182% | 2.913% | -8.416% |
| `CC(C)CN1CC(O)CN(S(=O)(=O)c2ccccc2)CC1=O` (stereo not drawn) | - | 0.6515% | 1.348% | 2.421% | -9.943% |
| `CCCc1cc(C(=O)N(C)Cc2cnn(-c3cccc(OC)c3)c2)[nH]n1` | -0.1032% | -2.256% | 0.5147% | - | -53.4% |
| `COC(C)(C)CNC(=O)N1CCC(n2ccc(C(F)(F)F)n2)CC1` | 3.47% | 3.482% | -5.166% | 4.225% | -3.945% |
| `CC(C)N1CCCC(C(=O)N2CCN(c3cccc(C(=O)O)c3)CC2)C1` (stereo not drawn) | 7.204% | 18.45% | -0.1735% | 7.407% | -42.15% |
| `CCCn1nc2c(cc1=O)CN(CC(=O)Nc1nnc(C)s1)CC2` | 11.08% | -0.5562% | -0.139% | 2.899% | 11.94% |
| `c1cnc(NCc2nnn3c2CN(Cc2ccsc2)CCC3)nc1` | 4.499% | - | 5.249% | 6.53% | 9.621% |
| `Cn1cccc1CN(C(=O)CC(CC(=O)O)c1cccs1)C1CC1` (stereo not drawn) | 3.843% | -1.723% | 1.37% | 10.14% | -9.474% |
| `O=C(Nc1ccccc1)C1=NOC2(CCNCC2)C1` | 0.7214% | - | 13.89% | 0.611% | -28.14% |
| `Cc1ccc([C@@H]2CN(C(=O)c3csc(C)n3)C[C@H]2NC(=O)C2CC2)cc1` | 0.2506% | 5.821% | -2.546% | 5.263% | -7.455% |
| `CCN1CCC(NC(=O)CN2CCCC2Cn2cccn2)CC1` (stereo not drawn) | -0.0783% | 3.986% | -10.38% | 0.978% | -16.37% |
| `O=C1NCC2(CCCN(Cc3ccncc3)C2)Oc2ccccc21` (stereo not drawn) | - | -10.8% | -0.3555% | 7.598% | 5.02% |
| `O=C(O)C(F)(F)F.[H][C@@]12CCC(=O)N(c3ccccc3)[C@]1([H])CCN2Cc1cnn(C)c1` | - | 3.765% | - | - | - |
| `CCN(C)c1ncnc2c1CCN(CC1CCOC1)CC2` (stereo not drawn) | -6.141% | - | -7.201% | 0.1236% | -8.511% |
| `CC(C)CN1C(=O)CO[C@@H]2CN(C(=O)NC(C)C)C[C@H]21` | 3.735% | - | 11.27% | 1.903% | -42.49% |
| `Cc1noc(CNC(=O)NCC2(C)CCCc3ccccc32)n1` (stereo not drawn) | 1.858% | 0.4453% | -10.5% | 4.373% | -12.28% |
| `CN1CCN(C(=O)c2ccc3c(c2)nc(N2CCOCC2)n3C)CC1=O` | 0.6365% | -4.302% | -8.331% | 3.316% | 7.46% |
| `O=C(C1CCS(=O)(=O)CC1)N1C[C@H]2CC[C@@H]1CN(Cc1ccccc1)C2` | 2.716% | - | 7.796% | 0.2058% | 13.27% |
| `[H][C@]12CC[C@]([H])(CN(C(=O)COCC)C1)N(Cc1ccccn1)C2=O` | - | 1.913% | - | - | - |
| `[H][C@@]12CCN(Cc3cnn(C)c3)C[C@@]1([H])O[C@H](c1nc(C)c(C)s1)C2` | - | 0.7836% | - | - | - |
| `CCC1c2ccsc2CCN1Cc1cc2c(cc1OC)OCCO2` (stereo not drawn) | 2.605% | 3.873% | -7.389% | 5.767% | 1.489% |
| `Cc1n[nH]c(C)c1-c1cc(-c2cccc(O)c2)nc(N)c1C#N` | 4.854% | -22.67% | -115.9% | -2.41% | 23.76% |
| `Cc1ccc(NC(=O)NCCCc2n[nH]c(N)c2C#N)cc1` | -1.652% | - | 7.361% | -1.285% | -20.62% |
| `CCOCCOC(C)C(=O)Nc1ccc2[nH]c(C)cc2c1` (stereo not drawn) | -1.242% | -11.43% | -2.578% | 10.76% | -2.04% |
| `O=c1[nH]c(-c2ccncc2)nc2c1CCN(S(=O)(=O)N1CCCC1)C2` | 1.917% | 4.798% | -4.023% | 3.479% | -18.84% |
| `CCc1noc(CC)c1CC(=O)N1CCC(C(=O)NC(C)C)CC1` | 4.624% | -6.318% | 3.322% | -2.981% | -11.5% |
| `CCC(CNC(=O)Cn1ccnc1)Oc1cccc(F)c1` (stereo not drawn) | 4.238% | 10.62% | 10.46% | -5% | -33.82% |
| `O=C(O)C(F)(F)F.O=C(O)C(F)(F)F.[H][C@@]12OCCN(Cc3csc(C)n3)[C@@]1([H])CC[C@@H]2OCc1cccnc1` | - | 6.728% | - | - | - |
| `N#CCC1CC(c2ccc(F)cc2)=NO1` (stereo not drawn) | 5.092% | -7.78% | -20.17% | -2.296% | -0.7469% |
| `Cc1nc(C)n(C2CCCN(C(=O)CCOc3cccc(F)c3)C2)n1` (stereo not drawn) | 3.7% | -3.57% | -13.43% | 2.71% | -11% |
| `CC(C)NC(=O)NC(=O)C(C)N1CCN(C2CCN(C(C)C)CC2)CC1` (stereo not drawn) | -2.016% | 31.1% | -1.742% | -4.177% | -1.563% |
| `COCCOc1ccc(C(=O)N[C@@H]2CNCCC[C@H]2O)cc1` | -1.581% | 13.36% | -1.967% | 8.804% | -31.59% |
| `CN(C)Cc1cc(=O)n2c(n1)CN(CC1CCOCC1)CCC2` | -10.46% | 0.7559% | -1.202% | 10.79% | -0.7836% |
| `Cn1cc(CN2CCC3(CC2)CC(=O)Nc2ccccc23)cn1` | -3.876% | 6.677% | 5.229% | -1.057% | -41.88% |